In experiment [1] the target is T1, KSRP-eCFP (UniProt Q92945).
T1 sequence: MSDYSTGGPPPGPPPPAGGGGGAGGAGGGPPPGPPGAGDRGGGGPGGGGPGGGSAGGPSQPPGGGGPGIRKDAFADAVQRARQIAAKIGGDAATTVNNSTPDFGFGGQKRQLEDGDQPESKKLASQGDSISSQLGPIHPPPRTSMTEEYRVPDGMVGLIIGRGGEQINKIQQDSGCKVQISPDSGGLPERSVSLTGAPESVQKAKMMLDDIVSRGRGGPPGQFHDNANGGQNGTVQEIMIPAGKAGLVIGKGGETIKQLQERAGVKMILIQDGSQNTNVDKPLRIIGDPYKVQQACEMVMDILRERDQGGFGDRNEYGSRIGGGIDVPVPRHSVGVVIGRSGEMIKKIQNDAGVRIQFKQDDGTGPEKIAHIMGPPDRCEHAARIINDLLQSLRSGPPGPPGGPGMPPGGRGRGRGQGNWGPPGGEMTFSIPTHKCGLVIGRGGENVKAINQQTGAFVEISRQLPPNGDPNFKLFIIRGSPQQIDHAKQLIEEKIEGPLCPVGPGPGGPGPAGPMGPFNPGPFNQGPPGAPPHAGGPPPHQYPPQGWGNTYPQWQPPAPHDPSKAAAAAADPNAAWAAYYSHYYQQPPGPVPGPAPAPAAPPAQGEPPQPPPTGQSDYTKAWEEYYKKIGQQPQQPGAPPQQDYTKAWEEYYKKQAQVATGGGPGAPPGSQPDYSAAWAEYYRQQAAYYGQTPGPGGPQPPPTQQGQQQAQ
The experiment in a line: FRET or BRET; traditional FRET between eCFP and eYFP tagged proteins transiently transfected into DDT1-MF2 cells; FRETc images of live or fixed cells, room temperature; control cells, 0.5 mM sodium arsenite 30 min, or 75 nM anisomycin 24 h. For orientation: Bioluminescence resonance energy transfer reports proximity on the nanometre scale.

By UniProt entry, the sequences of proteins in these tests, tags left out. Where a name states a change or a piece, a line headed by the entry shows the natural chain unless it says otherwise. Chains listed by the source or under a name are the forms on record and can include a tag or linker.
p37AUF1-eYFP (Q14103-4, form named): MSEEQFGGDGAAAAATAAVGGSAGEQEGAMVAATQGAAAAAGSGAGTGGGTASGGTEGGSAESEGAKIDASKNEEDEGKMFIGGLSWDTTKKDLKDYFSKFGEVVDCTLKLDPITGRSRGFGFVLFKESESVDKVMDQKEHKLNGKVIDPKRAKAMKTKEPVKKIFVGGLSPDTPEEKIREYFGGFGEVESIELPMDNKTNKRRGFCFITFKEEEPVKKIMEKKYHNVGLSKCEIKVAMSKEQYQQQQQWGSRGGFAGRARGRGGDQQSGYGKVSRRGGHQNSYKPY
UniProt Q15717: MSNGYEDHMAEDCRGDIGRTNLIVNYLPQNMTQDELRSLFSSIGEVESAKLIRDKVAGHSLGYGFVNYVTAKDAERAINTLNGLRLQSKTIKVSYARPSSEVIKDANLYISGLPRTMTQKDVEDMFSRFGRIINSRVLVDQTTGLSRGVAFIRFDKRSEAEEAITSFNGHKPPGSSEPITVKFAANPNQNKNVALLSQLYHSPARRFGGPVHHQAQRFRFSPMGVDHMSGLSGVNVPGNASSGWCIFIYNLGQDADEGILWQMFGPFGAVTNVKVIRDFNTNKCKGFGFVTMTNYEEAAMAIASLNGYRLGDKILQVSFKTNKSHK

Experiment [2] has as its target p37AUF1-eCFP (UniProt Q14103). The description is as above.

For 2 substances, binding results are on record in article PMC2949623.

These are yes or no findings as the source states them, for the method shown. Binding seen in cells or lysates may run through a third protein. Some results given as binding are weak or reduced against the parent protein; the word gives no strength. For part of these data: Tags and fused reporters may be left off the sequences shown.

For HuR-eYFP (from UniProt Q15717 1-326), the binding result in experiment [1] and in experiment [2] was “binds” each time.
Take “p37AUF1-eYFP (from UniProt Q14103-4 1-287)”: in experiment [1], the binding entry is listed as “binds”.
